Source: the supplement of paper PMC10849652
This is one part of the list.

Chains of the proteins cited; added tags and fusions are not shown. Lines headed by an entry give the natural chain unless they say otherwise; changes in a name come on top.
UniProt O76064: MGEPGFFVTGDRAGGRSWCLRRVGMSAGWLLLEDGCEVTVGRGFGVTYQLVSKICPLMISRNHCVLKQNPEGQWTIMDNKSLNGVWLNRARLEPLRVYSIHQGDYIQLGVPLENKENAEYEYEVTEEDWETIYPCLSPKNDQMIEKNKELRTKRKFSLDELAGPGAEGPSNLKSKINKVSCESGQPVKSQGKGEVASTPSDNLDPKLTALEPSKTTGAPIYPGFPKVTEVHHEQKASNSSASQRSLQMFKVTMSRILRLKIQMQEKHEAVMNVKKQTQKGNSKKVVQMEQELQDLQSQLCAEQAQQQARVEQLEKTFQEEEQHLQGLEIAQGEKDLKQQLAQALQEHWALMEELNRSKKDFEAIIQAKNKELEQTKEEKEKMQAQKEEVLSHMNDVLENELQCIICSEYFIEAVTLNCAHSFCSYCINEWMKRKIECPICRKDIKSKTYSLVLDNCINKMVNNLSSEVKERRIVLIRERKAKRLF
UniProt Q96E14: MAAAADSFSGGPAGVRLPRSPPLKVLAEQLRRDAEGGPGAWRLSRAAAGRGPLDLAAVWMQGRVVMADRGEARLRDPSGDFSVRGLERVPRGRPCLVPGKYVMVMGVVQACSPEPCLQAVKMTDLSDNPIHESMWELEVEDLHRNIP
UniProt Q9GZN7, whole entry, looked up: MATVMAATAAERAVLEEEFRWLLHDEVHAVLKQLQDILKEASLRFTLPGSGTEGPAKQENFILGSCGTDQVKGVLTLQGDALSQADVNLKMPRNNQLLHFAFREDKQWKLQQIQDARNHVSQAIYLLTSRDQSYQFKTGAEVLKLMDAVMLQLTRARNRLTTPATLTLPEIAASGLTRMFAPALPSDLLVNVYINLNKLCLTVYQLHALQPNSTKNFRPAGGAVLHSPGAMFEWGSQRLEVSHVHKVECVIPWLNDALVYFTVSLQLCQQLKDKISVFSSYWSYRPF
UniProt P60602: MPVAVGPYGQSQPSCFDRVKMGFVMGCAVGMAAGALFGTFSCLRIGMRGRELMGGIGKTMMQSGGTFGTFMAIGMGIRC
UniProt Q13129: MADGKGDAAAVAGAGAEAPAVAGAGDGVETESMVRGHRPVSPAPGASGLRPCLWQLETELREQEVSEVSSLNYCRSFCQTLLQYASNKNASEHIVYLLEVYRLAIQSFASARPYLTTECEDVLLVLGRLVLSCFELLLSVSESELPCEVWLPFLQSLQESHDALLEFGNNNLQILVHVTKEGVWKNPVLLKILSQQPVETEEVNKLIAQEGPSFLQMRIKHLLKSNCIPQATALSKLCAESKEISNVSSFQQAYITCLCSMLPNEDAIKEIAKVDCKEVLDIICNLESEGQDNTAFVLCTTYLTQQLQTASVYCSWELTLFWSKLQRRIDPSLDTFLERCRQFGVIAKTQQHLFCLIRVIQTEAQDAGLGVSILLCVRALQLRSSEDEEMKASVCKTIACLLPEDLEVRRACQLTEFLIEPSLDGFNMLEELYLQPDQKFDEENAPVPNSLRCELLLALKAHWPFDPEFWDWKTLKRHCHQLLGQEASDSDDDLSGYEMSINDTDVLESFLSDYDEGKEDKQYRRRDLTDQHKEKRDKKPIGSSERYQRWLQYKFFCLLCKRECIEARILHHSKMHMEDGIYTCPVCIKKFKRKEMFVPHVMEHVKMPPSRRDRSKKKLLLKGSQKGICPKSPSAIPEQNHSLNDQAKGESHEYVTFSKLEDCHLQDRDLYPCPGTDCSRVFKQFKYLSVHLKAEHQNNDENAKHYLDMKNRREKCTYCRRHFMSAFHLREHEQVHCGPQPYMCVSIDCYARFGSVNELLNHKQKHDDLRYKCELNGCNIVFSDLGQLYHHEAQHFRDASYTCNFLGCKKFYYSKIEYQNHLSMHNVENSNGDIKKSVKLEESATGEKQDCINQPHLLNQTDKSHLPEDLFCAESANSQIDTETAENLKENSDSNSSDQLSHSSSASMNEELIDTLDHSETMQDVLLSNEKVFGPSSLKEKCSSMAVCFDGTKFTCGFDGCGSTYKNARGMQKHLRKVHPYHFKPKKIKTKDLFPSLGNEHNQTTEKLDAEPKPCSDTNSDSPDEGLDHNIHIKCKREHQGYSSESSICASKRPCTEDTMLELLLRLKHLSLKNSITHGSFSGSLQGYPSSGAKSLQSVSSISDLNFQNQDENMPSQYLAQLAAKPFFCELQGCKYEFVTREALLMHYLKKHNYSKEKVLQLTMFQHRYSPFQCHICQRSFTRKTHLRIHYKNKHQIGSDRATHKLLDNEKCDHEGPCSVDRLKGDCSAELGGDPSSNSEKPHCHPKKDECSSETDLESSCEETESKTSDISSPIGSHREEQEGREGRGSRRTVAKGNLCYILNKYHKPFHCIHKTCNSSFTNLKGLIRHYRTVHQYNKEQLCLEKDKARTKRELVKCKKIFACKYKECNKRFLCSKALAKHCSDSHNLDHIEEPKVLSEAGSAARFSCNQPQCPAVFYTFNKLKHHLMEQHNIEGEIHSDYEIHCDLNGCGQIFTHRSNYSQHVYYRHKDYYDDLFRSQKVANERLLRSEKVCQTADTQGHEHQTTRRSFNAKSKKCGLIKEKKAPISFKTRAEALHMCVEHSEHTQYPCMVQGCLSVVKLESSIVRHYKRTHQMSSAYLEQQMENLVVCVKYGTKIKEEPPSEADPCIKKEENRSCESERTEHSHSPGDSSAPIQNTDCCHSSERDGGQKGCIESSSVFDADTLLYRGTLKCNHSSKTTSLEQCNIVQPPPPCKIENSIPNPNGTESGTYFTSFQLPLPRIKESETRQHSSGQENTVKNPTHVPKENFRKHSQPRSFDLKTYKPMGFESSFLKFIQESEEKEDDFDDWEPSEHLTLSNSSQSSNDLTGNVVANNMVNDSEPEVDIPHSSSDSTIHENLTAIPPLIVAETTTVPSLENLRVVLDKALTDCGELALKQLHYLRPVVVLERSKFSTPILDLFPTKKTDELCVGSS
UniProt P08922: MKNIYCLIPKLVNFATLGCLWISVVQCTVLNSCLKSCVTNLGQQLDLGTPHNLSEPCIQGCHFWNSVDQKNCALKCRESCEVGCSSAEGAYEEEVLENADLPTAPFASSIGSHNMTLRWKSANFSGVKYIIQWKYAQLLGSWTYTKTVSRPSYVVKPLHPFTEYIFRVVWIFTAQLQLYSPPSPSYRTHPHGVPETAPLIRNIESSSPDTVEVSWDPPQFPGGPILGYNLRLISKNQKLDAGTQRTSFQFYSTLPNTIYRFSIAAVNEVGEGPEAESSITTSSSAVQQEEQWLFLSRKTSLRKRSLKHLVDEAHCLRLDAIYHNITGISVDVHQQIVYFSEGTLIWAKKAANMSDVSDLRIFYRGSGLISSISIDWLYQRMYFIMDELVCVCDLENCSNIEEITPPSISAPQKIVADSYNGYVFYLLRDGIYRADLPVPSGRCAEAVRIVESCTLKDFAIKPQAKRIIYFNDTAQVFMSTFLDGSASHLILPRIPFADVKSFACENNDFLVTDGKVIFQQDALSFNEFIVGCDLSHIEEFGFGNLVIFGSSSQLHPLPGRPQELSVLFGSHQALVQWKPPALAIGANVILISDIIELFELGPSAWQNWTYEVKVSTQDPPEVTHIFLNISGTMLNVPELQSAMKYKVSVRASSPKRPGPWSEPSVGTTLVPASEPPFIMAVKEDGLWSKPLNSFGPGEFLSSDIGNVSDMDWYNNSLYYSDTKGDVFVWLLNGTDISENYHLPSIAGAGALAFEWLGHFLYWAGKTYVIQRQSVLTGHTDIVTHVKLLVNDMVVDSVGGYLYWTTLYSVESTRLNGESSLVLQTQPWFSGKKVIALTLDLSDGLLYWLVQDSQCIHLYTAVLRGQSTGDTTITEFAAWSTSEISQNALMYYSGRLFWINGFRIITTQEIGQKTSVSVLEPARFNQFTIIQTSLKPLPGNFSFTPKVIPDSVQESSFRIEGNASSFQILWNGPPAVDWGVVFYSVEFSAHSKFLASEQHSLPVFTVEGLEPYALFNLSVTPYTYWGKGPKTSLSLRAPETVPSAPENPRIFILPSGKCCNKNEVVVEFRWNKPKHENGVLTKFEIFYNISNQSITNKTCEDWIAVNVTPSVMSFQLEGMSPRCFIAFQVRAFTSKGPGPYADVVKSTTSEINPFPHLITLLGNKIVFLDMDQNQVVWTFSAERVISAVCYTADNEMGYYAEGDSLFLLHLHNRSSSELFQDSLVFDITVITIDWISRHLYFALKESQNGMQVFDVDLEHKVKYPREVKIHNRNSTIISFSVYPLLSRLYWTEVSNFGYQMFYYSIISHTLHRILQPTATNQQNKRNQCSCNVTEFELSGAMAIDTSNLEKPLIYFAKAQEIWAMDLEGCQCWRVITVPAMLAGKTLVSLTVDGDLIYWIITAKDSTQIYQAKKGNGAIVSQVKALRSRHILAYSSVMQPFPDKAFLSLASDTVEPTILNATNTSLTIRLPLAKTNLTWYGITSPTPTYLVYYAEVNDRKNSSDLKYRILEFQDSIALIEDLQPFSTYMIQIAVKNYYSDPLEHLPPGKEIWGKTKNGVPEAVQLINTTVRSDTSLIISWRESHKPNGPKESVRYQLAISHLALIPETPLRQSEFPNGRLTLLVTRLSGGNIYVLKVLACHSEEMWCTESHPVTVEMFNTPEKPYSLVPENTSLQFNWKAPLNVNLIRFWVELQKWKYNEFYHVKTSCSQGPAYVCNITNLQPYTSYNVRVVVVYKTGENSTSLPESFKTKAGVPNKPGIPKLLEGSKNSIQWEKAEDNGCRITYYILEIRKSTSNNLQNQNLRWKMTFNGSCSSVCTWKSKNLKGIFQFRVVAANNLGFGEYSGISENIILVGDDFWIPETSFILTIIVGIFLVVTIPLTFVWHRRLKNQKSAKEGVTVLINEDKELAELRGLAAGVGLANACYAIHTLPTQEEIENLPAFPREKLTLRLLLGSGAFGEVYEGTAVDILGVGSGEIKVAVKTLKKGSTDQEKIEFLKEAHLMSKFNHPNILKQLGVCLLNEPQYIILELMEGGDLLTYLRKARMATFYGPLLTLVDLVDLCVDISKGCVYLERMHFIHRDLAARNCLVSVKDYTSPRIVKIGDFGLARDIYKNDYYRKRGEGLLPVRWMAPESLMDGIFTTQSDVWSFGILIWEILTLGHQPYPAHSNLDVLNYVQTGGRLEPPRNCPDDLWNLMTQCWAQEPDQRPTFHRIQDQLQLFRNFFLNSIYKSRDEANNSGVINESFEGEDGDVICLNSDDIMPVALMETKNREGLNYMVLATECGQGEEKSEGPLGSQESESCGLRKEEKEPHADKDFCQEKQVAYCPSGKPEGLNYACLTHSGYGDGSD
UniProt P34096: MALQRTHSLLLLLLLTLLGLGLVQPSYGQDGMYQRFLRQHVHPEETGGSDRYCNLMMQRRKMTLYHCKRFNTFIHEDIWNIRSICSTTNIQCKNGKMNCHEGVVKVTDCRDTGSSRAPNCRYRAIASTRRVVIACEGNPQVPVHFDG
UniProt Q96K19: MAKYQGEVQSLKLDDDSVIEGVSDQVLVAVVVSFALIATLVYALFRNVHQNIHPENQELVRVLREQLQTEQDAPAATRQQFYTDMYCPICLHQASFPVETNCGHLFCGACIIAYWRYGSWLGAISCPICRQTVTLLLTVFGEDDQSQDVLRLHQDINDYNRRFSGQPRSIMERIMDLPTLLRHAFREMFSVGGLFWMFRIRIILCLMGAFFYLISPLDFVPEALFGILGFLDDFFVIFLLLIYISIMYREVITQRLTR
UniProt O94955, whole entry, looked up: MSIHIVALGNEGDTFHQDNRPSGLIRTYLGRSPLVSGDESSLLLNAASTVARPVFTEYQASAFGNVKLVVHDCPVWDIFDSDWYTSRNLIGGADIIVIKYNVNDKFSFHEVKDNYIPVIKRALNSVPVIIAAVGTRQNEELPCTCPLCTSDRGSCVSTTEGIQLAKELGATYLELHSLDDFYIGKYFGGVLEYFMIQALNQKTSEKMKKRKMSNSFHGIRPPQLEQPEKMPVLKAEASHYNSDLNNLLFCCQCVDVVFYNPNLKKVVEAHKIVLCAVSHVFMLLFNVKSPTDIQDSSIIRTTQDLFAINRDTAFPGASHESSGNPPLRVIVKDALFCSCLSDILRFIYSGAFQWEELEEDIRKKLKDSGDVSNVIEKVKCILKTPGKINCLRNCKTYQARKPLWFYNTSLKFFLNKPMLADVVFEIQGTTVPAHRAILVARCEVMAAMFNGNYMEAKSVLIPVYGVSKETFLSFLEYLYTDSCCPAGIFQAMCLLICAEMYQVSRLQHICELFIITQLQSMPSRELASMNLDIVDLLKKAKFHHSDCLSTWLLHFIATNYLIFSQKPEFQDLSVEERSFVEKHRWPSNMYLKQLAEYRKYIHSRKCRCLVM
UniProt P78317: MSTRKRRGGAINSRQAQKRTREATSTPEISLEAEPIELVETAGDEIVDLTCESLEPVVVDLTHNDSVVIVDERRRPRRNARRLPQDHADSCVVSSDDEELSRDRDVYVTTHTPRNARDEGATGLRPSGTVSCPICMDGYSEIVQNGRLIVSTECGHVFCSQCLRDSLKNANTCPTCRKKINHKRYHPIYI

compound: CNc1nc(-c2ccc3c(N)n[nH]c3c2)cc(N2C[C@@H](C(=O)NC3CCCCC3)CC[C@H]2C)n1; assay: log2 fold change, soluble protein after heating vs DMSO (PISA); higher = thermal stabilisation; K562 lysate, 10 uM; active = over 0.2 and 3.5 SD of the protein, either way, in both replicates (recomputed)
Summary of the method: (§1)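 Log-two fold change in thermal stability relative to solvent controls is reported from duplicates. For each sample, crude K562 extract from dounce-homogenised pellets in PBS pH 7.4 with 1 mM MgCl2, at 1 mg/mL protein, was treated with 10 μM compound for 30 min. Aliquots heated for 3 min across 48°C-58°C were pooled, brought to 0.5% NP-40 at 4°C and cleared at 21,000xg for 90 min. The supernatant was quantified by TMTpro 16plex LC-MS/MS with channel sums equalised.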

log2 fold change, inactive:
RNF167 (UniProt Q9H6Y7) -0.088
RNF8 (UniProt O76064) 0.08
RNF138 (UniProt Q8WVD3) -0.009
RHOXF2B (UniProt P0C7M4) -0.038
RMI2 (UniProt Q96E14) 0.007
RNF169 (UniProt Q8NCN4) 0.17
RP9 (UniProt Q8TA86) -0.014
RPL22L1 (UniProt Q6P5R6) 0.845
RPL10, A0A087WV22 0.219
RNF121 (UniProt Q9H920) -0.118
ROGDI (UniProt Q9GZN7) 0.333
ROMO1 (UniProt P60602) 0.06
RNF41 (UniProt Q9H4P4) -0.141
RNF130 (UniProt Q86XS8) 0.157
RNF10 isoform 2 (UniProt Q8N5U6) 0.063
RNPC3 (UniProt Q96LT9) 0.082
RLF (UniProt Q13129) -0.003
ROS1 (UniProt P08922) -0.051
RNASE4 (UniProt P34096) -0.091
RNF17 (UniProt Q9BXT8) -0.183
RNF170 (UniProt Q96K19) -0.067
RPL32 (UniProt D3YTI8) 0.079

compound: COC(=O)N[C@@H](C)CNc1nccc(-c2cn(C(C)C)nc2-c2cc(Cl)cc(NS(C)(=O)=O)c2F)n1 [encorafenib]; assay: as above
Summary of the method: as §1

log2 fold change, inactive:
RPAIN isoform 8 (UniProt Q86UA6) 0.051
RHOBTB3 (UniProt O94955) 0.026
RNF8 (UniProt O76064) -0.018
RNF138 (UniProt Q8WVD3) 0.074
RMI2 (UniProt Q96E14) -0.054
RNF4 (UniProt P78317) 0.099
RPL22L1 (UniProt Q6P5R6) 0.611
ROMO1 (UniProt P60602) -0.003
RHOQ (UniProt P17081) 0.002
RNF10 isoform 2 (UniProt Q8N5U6) -0.098
ROS1 (UniProt P08922) -0.013
RNASE4 (UniProt P34096) -0.036
RNF17 (UniProt Q9BXT8) 0.061
RHPN2 (UniProt Q8IUC4) -0.09

compound: COC(=O)[C@H](CCSC)NC(=O)C1=C(C=C(C=C1)NC[C@H](CS)N)C2=CC=CC=C2; assay: as above
Summary of the method: as §1

log2 fold change, inactive:
RPAIN isoform 8 (UniProt Q86UA6) -0.19
RHOBTB3 (UniProt O94955) 0.07
RNF8 (UniProt O76064) 0.06
RNF138 (UniProt Q8WVD3) -0.316
RMI2 (UniProt Q96E14) -0.021
RNF4 (UniProt P78317) -0.019
RPL22L1 (UniProt Q6P5R6) -0.024
ROMO1 (UniProt P60602) -0.051
RHOQ (UniProt P17081) 0.094
RNF10 isoform 2 (UniProt Q8N5U6) 0.121
ROS1 (UniProt P08922) 0.018
RNASE4 (UniProt P34096) 0.126
RNF17 (UniProt Q9BXT8) -0.032
RHPN2 (UniProt Q8IUC4) 0.127

compound: COc1cc(Nc2ncc3c(n2)-c2ccc(Cl)cc2C(c2c(F)cccc2OC)=NC3)ccc1C(=O)O [alisertib]; assay: as above
Summary of the method: as §1

log2 fold change, inactive:
RNF185 (UniProt Q96GF1) 0.032
RHOBTB3 (UniProt O94955) -0.041
RNF8 (UniProt O76064) -0.054
RILPL2 (UniProt Q969X0) -0.05
RNF138 (UniProt Q8WVD3) 0.009
RNF4 (UniProt P78317) 0.151
RNF24 isoform 2 (UniProt Q9Y225) -0.113
RNF115 (UniProt Q9Y4L5) -0.104
RNF121 (UniProt Q9H920) 0.089
ROGDI (UniProt Q9GZN7) -0.019
ROMO1 (UniProt P60602) -0.11
RNASEH2B, A0A1B0GUE7 0.04
RNF41 (UniProt Q9H4P4) -0.073
RNPC3 (UniProt Q96LT9) 0.118
RLF (UniProt Q13129) 0.18
ROS1 (UniProt P08922) 0.104
RNASE4 (UniProt P34096) -0.055
RNF170 (UniProt Q96K19) 0.055
RPL15, A0A2R8Y738 0.225
RHPN2 (UniProt Q8IUC4) -0.063

compound: COc1cc2nc(-c3cc(F)ccc3O)nc(N[C@@H]3CNC[C@H]3C(C)(C)O)c2cc1OC; assay: as above
Summary of the method: as §1

log2 fold change, inactive:
RNF167 (UniProt Q9H6Y7) -0.048
RNF185 (UniProt Q96GF1) 0.016
RILPL2 (UniProt Q969X0) 0.054
RHOXF2B (UniProt P0C7M4) 0.029
RP9 (UniProt Q8TA86) -0.032
RNF121 (UniProt Q9H920) -0.022
ROGDI (UniProt Q9GZN7) -0.059
ROMO1 (UniProt P60602) -0.089
RNASEH2B, A0A1B0GUE7 0.039
RNF10 isoform 2 (UniProt Q8N5U6) -0.054
RNPC3 (UniProt Q96LT9) 0.056
RLF (UniProt Q13129) -0.066
ROS1 (UniProt P08922) 0.031
RNASE4 (UniProt P34096) 0.087
RNF17 (UniProt Q9BXT8) -0.057
ROBO2 isoform 3 (UniProt Q9HCK4) 0.009
RPF1 (UniProt Q9H9Y2) 0.027
RNF170 (UniProt Q96K19) 0.07
RPL15, A0A2R8Y738 0.023
RHPN2 (UniProt Q8IUC4) 0.031
RPL32 (UniProt D3YTI8) -0.016
